Patent US20230212304A1
Positions count from the first letter of the chain named. Results are given in words; binding and its absence hold for the method and conditions named. Some entries that bind do so weakly or less than the wild type. One block for each binder: values may come before it.

Protein sequences, listed by entry. Tags and fused reporters are not part of them. Lines headed by an entry give the natural chain unless they say otherwise; changes in a name come on top. Chains listed by the source or under a name are the forms on record and can include a tag or linker.
cynomolgus monkey CTLA4-his protein (Acro biosystems, Cat#CT4-C5227) (G7PL88, form named): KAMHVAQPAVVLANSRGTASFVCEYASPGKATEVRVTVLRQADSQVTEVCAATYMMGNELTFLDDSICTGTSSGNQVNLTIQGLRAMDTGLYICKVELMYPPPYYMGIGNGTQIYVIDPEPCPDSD

How the values were obtained:
[1] = target: cynomolgus monkey CTLA4-his protein (Acro biosystems, Cat#CT4-C5227) (cynomolgus monkey) (UniProt G7PL88); assay: SPR, Biacore T200
[2] = target: cynomolgus monkey CTLA4-his protein (Acro biosystems, Cat#CT4-C5227) (cynomolgus monkey) (UniProt G7PL88); assay: SPR, Biacore

binding [1]: binds
B1: mouse anti-CTLA4 monoclonal antibody D1D5 (antibody, V domains shown)
VH: EVKLVESGGGLVKPGGSLKLSCAASGFTFSDYGMAWVRQAPGKGPEWVAFISNLAYSVYYADTETGRFTISREDAKNTLYLEMSSLRSEDTAMYYCARSGLPYAMDYWGQGTSVTVSS
VL: DIQMTQTTSSLSASLGDRVTISCRASQDISNYLNWYQQKPDGTVKLLIYYISRLHSGVPSRFSGSGSGTDFSLTISNLEQEDIATYFCQQGRMLPWTFGGGTRLEIK

binding [2]: binds
B2: huD1D5-V9 (antibody, human IgG4 S228P, kappa, V domains shown)
VH: B1 VH with K3Q, K19R, E73D, T78S, E82Q, S84N, S88A, M93V, S113T
VL: DIQMTQSPSSLSASVGDRVTITCRASQDISNYLNWYQQKPGKVPKLLIYYISRLHSGVPSRFSGSGSGTDFTLTISSLQPEDVATYYCQQGRMLPWTFGGGTKVEIKR

binding [1]: binds
B3: mouse anti-CTLA4 monoclonal antibody D1H3 (antibody, V domains shown)
VH: QVQLQQPGAELVNPGASVKLSCKASGYTFTSYWLHWVKQRPGRGLEWIGRIDPNRGTIYYNEKFNNKATVTVDKPSNTAYMQLSRLTLEDSAVYYCARGGSNFYAMDYWGQGTSVTVSS
VL: DIQMTQSPASLSASVGETVTITCRTSENIYSYLAWYQQKQGESPQLLVYNAKTLAEGVPSRFSGSGSGTQFSLKINSLQPEDFGSYYCQNHDGIPFTFGSGTKLEIK

binding [2]: binds
B4: huC1D1-V8 (antibody, human IgG4 S228P, kappa, V domains shown)
VH: EVQLVESGGGLVQPGRSLRLSCTASGFTFSDNWMNWVRQAPGKGLEWVGQIRNKPYNYETYYSDSVKGRFTISRDDSKSIAYLQMNSLKTEDTAVYYCTGGMDYWGQGTTVTVSS
VL: DIQMTQSPSSLSASVGDRVTITCGASEIIYGALNWYQQKPGKSPKLLIYGATNLADGVPSRFSGSGSGTDFTLTISSLQPEDVATYYCQKILSPPPWTFGGGTKVEIKR

binding [1]: binds
B5: mouse anti-CTLA4 monoclonal antibody D1H4 (antibody, V domains shown)
VH: EVQLQQSGPVLVKPGASVKMSCKASGYTFTDYYMNWVKQSHGKSLEWIGAINPDHGGSSYNQKFKGKATLTVDKSSSTAYMELNSLTSEDSAVYYCARDGSIHYVMDDWGQGTSVTVSS
VL: DIVMSQSPSSLTVSAGDKVTMSCKSSQSLLHSGNQKNYLAWYQQKPWQPPKLLIYGASTRESGVPDRFTGSGSGTDFTLTISSVQAEDLAVYYCQNDYGYPYTFGGGTKLEIK

binding [1]: binds
B6: mouse anti-CTLA4 monoclonal antibody C1D1 (antibody, V domains shown)
VH: EVKLDETGGGLVQPGRPLKLSCVASGFTFSDNWMNWVRQSPEKGLEWVAQIRNKPYNYETYYSDSVKGRFTISRDDSKSSVYLQMNNLRVEDMGIYYCTGGMDYWGQGTSVTVSS
VL: DIQMTQSPASLSASVGETVTITCGASEIIYGALNWYQQKQGKSPQLLIYGATNLADGMSSRFSGSGSGRQYSLKISSLHPDDAATYYCQKILSPPPWTFGGGTKLEIK

binding [1]: binds
B7: mouse anti-CTLA4 monoclonal antibody C1G4 (antibody, V domains shown)
VH: B6 VH with L18I, V90T, E91K, M102F, D103T, S110L, S115A
VL: DIQMTQSPPSLSASVGETVTITCGASENIYGGLNWYQRKQGKSPQLLIYGATNLADGMSSRFSGSGSGRQYSLKISRLHPDDVATYYCQNVLNTPYTFGGGTKLEIK

binding [1]: binds
B8: mouse anti-CTLA4 monoclonal antibody D1B8 (antibody, V domains shown)
VH: QIQLQQSGPELVKPGASVKISCKASGYTFTDYYINWVKQRPGQGLEWIGWIYPGNNNTRYNEKFKGKATLTIDTSSSTAFMHLSSLTSEDSAVYFCARYYFDYWGQGTTLTVSS
VL: DIQMTQSPSSLSASLGERISLTCRASQEITGYLSWLQQKPDGTIKRLIYAASTLDSGVPQRFSGSRSGSDYSLTISSLESEDFADYYCLQYASYPRTFGGGTKLEIK

binding [1]: binds
B9: mouse anti-CTLA4 monoclonal antibody D1B6 (antibody, V domains shown)
VH: EVQLQQSGPELVKPGASVKLSCKASGNTFTTYVLNWVKQKPGQGLEWIGYFNPYNDGIKYNEKFKGKATLTSDKSSNTAYMELSSLTSEDSAVYYCARFEGGGYAMDYWGQGTSVTVSS
VL: DIVLTQSPASLAVSLGQRATISCRASQSVGTSRNTYIHWYQQKLGQPPKLLIKYASDLESGVPARFSGSGSGTDFTLNIHPVEEEDTATYYCQHSWEIPYTFGGGTKLEIK

binding [1]: binds
B10: mouse anti-CTLA4 monoclonal antibody D1G6 (antibody, V domains shown)
VH: B9 VH with G57A, N77S
VL: B9 VL with R33S, N34Y, T35S, L44P

binding [1]: binds
B11: mouse anti-CTLA4 monoclonal antibody D2A4 (antibody, V domains shown)
VH: QVQLQQPGAELVKPGSSVNLSCKASGYTFTSYWVHWVKQGPGRGLEWIGRIDPNRGGTYYNENFKTKAALTVDSPSSTAYMHLSSLTSEDSAVYYCARGGLNYYALDYWGQGTSVTVSS
VL: DIQMTQSPASLFASLGETVTITCRASENIYSYLAWYQQKQGKSPQLLVYNANTLTEGVPSSFSGSGSGTQFSLKINTLQPEDFGTYYCQHHYGIPFTFGSGTKLEIK

binding [1]: binds
B12: mouse anti-CTLA4 monoclonal antibody D1A7 (antibody, V domains shown)
VH: QVTLKESGPGMLQPSQTLSLTCSFSGFSLSSSKLGVGWIRQPAGKGLEWLAHIWWNDDNYYVPSLKSRLTISKDTSNNQVFLKITNVDAADTATYYCVQVPYYTTQPWFAYWGQGTLVTVSA
VL: DIQMTQSPASLSASVGETVTITCRASGNIHNYLAWYLQNQGRSPQLLVYNTETLADGVSSRFSGSGSGTQYFLKISSLQPEDFGTYYCQHLWSTPWTFGGGTKLEIK
